Experimental findings from publication PMC11984722 are described below.

Amino acid sequences for entries named in this document (tags omitted). Residues count along the entry.
UniProt Q15418: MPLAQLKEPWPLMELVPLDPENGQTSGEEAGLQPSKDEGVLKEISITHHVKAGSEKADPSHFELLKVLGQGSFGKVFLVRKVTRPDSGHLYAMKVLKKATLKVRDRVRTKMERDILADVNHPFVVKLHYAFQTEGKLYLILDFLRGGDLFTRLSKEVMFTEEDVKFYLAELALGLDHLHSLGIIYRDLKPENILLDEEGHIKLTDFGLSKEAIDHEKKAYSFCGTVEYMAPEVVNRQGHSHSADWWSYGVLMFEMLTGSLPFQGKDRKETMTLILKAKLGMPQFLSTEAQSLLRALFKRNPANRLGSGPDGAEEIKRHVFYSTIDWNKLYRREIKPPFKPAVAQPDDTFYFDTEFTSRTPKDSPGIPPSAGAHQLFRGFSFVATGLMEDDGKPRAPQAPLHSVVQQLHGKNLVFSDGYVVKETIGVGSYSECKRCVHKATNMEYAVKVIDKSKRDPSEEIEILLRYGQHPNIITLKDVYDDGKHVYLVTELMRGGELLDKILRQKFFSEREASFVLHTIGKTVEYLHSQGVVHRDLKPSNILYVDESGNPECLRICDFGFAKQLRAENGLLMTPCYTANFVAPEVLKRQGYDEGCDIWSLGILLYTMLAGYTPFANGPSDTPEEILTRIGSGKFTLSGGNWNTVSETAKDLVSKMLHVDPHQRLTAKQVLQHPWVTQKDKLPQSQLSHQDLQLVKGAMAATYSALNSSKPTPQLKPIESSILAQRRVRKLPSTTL
UniProt Q8WXI2: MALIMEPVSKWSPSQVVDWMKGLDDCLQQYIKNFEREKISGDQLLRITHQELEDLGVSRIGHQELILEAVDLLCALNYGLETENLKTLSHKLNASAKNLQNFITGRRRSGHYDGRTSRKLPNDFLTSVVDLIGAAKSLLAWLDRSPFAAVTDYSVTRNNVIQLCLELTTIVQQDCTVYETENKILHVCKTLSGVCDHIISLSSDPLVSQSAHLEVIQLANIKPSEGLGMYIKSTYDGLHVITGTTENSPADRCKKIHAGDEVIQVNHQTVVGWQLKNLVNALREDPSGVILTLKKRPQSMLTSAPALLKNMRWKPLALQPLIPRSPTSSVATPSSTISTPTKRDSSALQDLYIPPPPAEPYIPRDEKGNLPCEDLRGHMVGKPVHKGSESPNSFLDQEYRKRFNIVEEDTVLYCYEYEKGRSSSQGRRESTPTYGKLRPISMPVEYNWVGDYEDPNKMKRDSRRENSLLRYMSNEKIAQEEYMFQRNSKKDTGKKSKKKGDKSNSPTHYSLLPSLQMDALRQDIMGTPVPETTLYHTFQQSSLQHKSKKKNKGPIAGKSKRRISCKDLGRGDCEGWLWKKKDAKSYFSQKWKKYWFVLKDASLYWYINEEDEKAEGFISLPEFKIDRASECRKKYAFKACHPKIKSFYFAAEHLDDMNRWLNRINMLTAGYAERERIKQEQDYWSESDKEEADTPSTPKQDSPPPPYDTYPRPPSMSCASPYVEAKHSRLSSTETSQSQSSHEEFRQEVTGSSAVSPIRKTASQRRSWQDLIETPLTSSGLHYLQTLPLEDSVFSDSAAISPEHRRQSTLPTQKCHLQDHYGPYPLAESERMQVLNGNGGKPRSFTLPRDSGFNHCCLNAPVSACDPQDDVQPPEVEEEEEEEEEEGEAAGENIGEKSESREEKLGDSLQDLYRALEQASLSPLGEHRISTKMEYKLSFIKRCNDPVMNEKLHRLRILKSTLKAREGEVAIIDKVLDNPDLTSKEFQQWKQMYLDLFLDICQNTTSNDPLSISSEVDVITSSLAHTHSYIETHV
UniProt Q7Z698: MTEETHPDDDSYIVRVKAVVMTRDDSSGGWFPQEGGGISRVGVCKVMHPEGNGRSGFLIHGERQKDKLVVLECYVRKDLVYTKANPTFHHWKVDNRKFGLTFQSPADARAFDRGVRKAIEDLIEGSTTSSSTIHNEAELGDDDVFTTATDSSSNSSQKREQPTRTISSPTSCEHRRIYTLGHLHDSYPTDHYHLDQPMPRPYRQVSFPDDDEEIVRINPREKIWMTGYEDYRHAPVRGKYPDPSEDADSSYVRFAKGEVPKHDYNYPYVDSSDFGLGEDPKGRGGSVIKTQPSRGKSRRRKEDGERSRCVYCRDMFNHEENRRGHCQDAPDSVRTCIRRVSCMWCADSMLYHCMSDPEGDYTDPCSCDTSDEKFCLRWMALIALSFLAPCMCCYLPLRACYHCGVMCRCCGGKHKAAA
UniProt P11362, residues 22-822: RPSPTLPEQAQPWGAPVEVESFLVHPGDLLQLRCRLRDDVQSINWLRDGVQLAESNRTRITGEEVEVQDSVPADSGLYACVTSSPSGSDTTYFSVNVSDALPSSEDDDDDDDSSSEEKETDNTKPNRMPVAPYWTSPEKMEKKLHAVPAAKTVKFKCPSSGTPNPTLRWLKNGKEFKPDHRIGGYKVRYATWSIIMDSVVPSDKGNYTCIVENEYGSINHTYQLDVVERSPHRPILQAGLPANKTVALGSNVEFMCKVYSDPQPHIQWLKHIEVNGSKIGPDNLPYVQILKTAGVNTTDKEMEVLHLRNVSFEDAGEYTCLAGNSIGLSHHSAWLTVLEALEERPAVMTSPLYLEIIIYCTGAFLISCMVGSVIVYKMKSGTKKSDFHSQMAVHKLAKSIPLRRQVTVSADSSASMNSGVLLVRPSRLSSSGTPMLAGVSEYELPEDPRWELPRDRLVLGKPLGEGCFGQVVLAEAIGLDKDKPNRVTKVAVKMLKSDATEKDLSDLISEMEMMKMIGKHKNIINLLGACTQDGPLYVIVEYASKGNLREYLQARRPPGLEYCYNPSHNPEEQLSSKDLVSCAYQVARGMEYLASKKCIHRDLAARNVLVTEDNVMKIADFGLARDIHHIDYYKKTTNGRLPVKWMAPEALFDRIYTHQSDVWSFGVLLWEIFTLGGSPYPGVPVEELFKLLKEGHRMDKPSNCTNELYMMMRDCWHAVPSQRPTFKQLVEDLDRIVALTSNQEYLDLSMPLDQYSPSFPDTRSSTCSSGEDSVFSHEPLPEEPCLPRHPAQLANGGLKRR

Holding throughout (experiment): co-IP
Assay [1] concerns the target FLAG-RSK1 wild type (KAKLGM), in HeLa (human) (UniProt Q15418).
Assay [2] concerns the target FLAG-CNKSR2 wild type (DSVF) (human) (UniProt Q8WXI2).
In assay [3] the target is T1, FLAG-GAB3 wild type (DDVF) (human) (UniProt Q8WWW8).
T1 sequence: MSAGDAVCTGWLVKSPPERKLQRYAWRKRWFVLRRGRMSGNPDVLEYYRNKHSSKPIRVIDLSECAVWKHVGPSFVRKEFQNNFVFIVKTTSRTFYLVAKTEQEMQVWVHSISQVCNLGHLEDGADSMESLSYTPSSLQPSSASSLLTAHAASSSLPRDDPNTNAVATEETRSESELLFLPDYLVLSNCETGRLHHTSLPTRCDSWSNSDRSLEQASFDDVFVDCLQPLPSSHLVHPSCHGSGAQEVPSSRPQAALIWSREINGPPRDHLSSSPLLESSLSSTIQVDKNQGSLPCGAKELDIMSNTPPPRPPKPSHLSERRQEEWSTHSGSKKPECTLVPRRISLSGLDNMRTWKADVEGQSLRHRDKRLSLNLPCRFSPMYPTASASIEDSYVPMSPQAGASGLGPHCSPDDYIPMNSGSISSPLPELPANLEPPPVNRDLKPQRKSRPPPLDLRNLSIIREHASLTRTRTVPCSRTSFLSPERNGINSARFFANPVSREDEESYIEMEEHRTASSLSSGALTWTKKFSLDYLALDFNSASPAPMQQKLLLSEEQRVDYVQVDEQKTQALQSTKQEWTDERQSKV

The target in assay [4] is FLAG-SPRED2 wild type (DDVF), in HEK293T (human) (UniProt Q7Z698).

These are yes or no findings as the source states them, for the method shown. Binding seen in cells or lysates may run through a third protein. Some entries that bind do so weakly or less than the wild type. For some of these results: Tags and fused reporters may be left off the sequences shown.

“HA-FGFR1 wild type (DSVF) (from UniProt P11362 22-822) (receptor)”: the binding result in assay [1] is listed as “binds”.
As to “HA-RSK1 wild type (KAKLGM) (from UniProt Q15418 1-735) (enzyme)”, the binding result in assay [2], in assay [3] and in assay [4] was “binds” throughout.
